Earlier results as cited in patent US9303042B2, “Triazolothienopyrimidine compound inhibitors of urea transporters and methods of using inhibitors” (The Regents of the University of California, priority 2012, dated 2016).
Some entries share one result that the patent states for a list of compounds. At least one compound was matched to its structure with a doubt left. Some compounds share one range, which may span the group rather than tell each member.

System: UT
Details: literature; cited from earlier work

Structure (SMILES): NC(N)=S [thiourea]
- concentration exhibiting activity: 50 to 100 mM
